The values are deposited in ChEMBL (CHEMBL3988442, “University of Dundee, Small-Polar-MMV Screening Library” (2021)).

Chains of the proteins cited; added tags and fusions are not shown.
UniProt P9WPC5, whole entry: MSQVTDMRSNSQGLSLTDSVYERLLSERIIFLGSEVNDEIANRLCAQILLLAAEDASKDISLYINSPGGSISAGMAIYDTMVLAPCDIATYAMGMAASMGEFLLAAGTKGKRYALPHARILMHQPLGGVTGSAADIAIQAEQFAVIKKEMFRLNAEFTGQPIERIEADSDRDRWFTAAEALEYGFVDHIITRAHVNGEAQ
UniProt P9WPC3, whole entry partner: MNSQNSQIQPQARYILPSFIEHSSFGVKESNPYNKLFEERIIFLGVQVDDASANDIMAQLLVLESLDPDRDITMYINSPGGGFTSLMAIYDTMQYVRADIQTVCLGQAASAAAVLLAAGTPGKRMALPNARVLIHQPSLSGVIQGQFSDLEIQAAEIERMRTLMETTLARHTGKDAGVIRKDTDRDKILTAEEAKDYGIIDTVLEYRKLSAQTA
UniProt P9WFT3, whole entry: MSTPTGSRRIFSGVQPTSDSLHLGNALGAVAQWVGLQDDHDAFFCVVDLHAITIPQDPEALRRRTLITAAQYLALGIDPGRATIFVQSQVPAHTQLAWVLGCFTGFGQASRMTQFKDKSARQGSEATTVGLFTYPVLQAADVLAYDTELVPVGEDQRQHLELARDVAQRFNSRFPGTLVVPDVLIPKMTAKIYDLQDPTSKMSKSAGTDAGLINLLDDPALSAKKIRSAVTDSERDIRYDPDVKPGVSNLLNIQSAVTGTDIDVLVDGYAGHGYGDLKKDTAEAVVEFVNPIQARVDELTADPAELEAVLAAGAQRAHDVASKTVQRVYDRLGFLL
UniProt P9WNZ1, whole entry: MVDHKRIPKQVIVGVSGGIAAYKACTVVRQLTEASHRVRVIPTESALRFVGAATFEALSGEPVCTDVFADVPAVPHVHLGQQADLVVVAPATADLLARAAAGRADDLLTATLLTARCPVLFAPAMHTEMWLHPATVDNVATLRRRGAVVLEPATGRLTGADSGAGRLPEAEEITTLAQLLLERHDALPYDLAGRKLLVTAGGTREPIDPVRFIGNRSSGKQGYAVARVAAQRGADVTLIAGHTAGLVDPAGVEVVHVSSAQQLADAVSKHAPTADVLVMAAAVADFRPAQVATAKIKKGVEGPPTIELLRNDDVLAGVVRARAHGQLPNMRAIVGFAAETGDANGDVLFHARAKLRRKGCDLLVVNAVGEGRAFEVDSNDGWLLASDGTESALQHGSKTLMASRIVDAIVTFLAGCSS

Values are the deposited “Percent Effect”, in %.
How 0% and 100% were set is not recorded. Most values in the screen are low, and negative values occur.
Compounds were drawn at random from those tested, without regard to their results.
Two or more numbers in one place are separate tests of the same structure; such repeats can differ widely.
A dash means the value is not listed here; it may have been measured.

ClpP1P2: 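ClpP1P2, Mycobacterium tuberculosis (UniProt P9WPC5 and UniProt P9WPC3). Protease assay of ClpP1P2, read by the AMC dye that it sets free. Concentration: 50 µM. Direction is inferred from only a few compounds that gave an IC50; most scored high, so higher reads as stronger inhibition. Most other retested compounds had strongly negative values. About 69,000 compounds were tested under these conditions; 0.015% (about 10) showed 50% or more at least once.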
Toxoplasma: 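Assay of Toxoplasma gondii numbers, read through their beta-galactosidase reporter with a colour substrate. Tested at 10 µM. Higher reads as fewer parasites (inferred from which compounds were picked for retests). Size under these conditions: about 67,000 compounds, about 260 of them at 50% or above in at least one test.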
MtTrpRS: 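Enzyme assay of tryptophanyl-tRNA synthetase; the read-out is not stated. Target: Tryptophan-tRNA ligase, Mycobacterium tuberculosis (UniProt P9WFT3). Tested at 10 µM. Higher most likely means stronger inhibition; the record gives no direction and few retests gave an IC50. Of about 65,000 compounds tested this way, about 64 (0.098%) reached 50% or more in at least one test.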
CoaBC: 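Coenzyme A biosynthesis protein CoaBC, Mycobacterium tuberculosis (UniProt P9WNZ1). Enzyme assay of CoaBC with a phosphate dye (Biomol Green) read at 650 nm. Concentration: 30 µM. Higher reads as stronger inhibition, judged from the few compounds that gave an IC50. Most strong results did not repeat in a second test. Size under these conditions: about 67,000 compounds, about 40 of them at 50% or above in at least one test.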

Compound	ClpP1P2	Toxoplasma	MtTrpRS	CoaBC
Cc1cn2cc(C(=O)NC3CCCN(c4ncccn4)C3)ccc2n1 (centres undefined)	1.187	-12.26	-1.72	-3.121
CCC(=O)NC1CCN(c2cccc(OC(F)(F)F)c2)C1=O (centres undefined)	4.122	7.791	1.376	0.4132
N#Cc1ccnc(N2CCN(C(=O)c3ccc4c(c3)CCO4)CC2)c1	-21.08	-1.569	-1.341	2.133
O=C(O)C(F)(F)F.c1csc(CN2CCn3c(Cn4cncn4)cnc3C2)c1	-	-12.42	-	-
Cc1ccc(C(CNCc2ccncc2)N2CCOCC2)s1 (centres undefined)	-3.64	-0.6331	6.191	-3.52
Cc1ccc(N2CCN(C)c3ncccc3C2)nn1	-3.78	-	-0.5394	-
O=C(O)CN1CCC(C(F)(F)F)CC1	-6.302	-	4.158	1.772
Cc1cccc(C(=O)NCCCN2CCc3ccccc3C2)c1C	-36.92	7.441	-3.516	3.133
CNC(=O)[C@@H](c1ccccc1)N1CCC[C@H]1C(=O)NCc1cccnc1	-19.49	-	-1.732	10.61
Cn1c(NCC(O)c2ccc(Cl)cc2)c(C#N)c(=O)n(C)c1=O (centres undefined)	-14.06	-41.84	-7.45	0.7874
Cc1cc(C[C@@H]2CCC[C@H]2NCc2ccccc2C(F)(F)F)on1.O=C(O)CC(O)(CC(=O)O)C(=O)O	-	0.5766	-	-
Cc1cccc(OC2CCN(C(=O)NCc3cc[nH]n3)CC2)c1C	9.613	6.055	-5.684	-2.174
COc1ncc(CN(CCCN2CCOCC2)Cc2ccc(C)o2)cn1	-6.862	-	-2.667	1.36
COc1cccc(CN2C[C@@H]3COC[C@]3(CNC(=O)C3CC3)C2)c1	-2.815	-	-	2.847
O=C(Nc1cccnc1)c1ccc(-n2cncn2)nn1	-2.422	19.56	23.78	4.44
O=C(O)C(F)(F)F.[H][C@@]12CN(CC3CCOC3)C[C@]1([H])OCCN2c1cnccn1 (some centres undefined)	-	0.06947	-	-
O=C(CNC(=O)c1ccoc1)NCCOc1ccc2c(c1)CCC2	3.51	-13.07	1.5	15.4
CC(CNC(=O)Nc1cn[nH]c1)N1CCCC1 (centres undefined)	-31.84	5.649	-1.505	4.178
O=C(c1cc(Br)ccc1Cl)N1CCN(Cc2ccco2)CC1	0.9043	-4.536	1.163	-12.8
Cc1ccc2c(n1)N(CCN(C)C)CCN(Cc1c(C)noc1C)C2	2.402	-	-1.481	-47.92
c1cn2c(n1)CN(Cc1ccsc1)CC(Cn1cncn1)C2 (centres undefined)	-4.898	-	-3.285	7.911
N#Cc1cccc(CN2C[C@H](OCC3CCOCC3)[C@H]3COC[C@H]32)c1	-19.06	-	2.766	5.863
NC(=O)c1ccc(=O)n(Cc2cc(Br)ccc2Cl)n1	-9.043	-14.16	-2.961	7.57
Cc1ccoc1C(=O)NC1CCN(Cc2ccccc2F)CC1	-2.018	-8.886	18.27	4.962
CCN(C(=O)CN1CCCC1c1c(C)nn(C)c1OC)C1CC1 (centres undefined)	1.271	21.13	-5.346	2.217
COCCC(=O)N1CCC2(COCc3cnc(-c4cccnc4)nc32)C1 (centres undefined)	4.344	2.702	-	7.654
Cc1noc(CN2CCN(CCS(C)(=O)=O)CC2)n1	2.316	26.96	-0.4397	-5.579
CC(=O)N1CC(c2ncn(C(C)C)n2)c2cc(C(=O)NC3CC3)ccc21 (centres undefined)	1.105	4.402	9.801	-1.474
COCCn1cc(NCc2cn(C)nc2-c2ccncc2)cn1	-6.061	-1.551	11.51	-1.768
O=C(Nc1ccccc1)[C@H]1CN2CCC1C[C@@H]2Cn1cc(CO)nn1 (some centres undefined)	1.265	-6.77	-8.66	0.2257
CNc1cc(C)nc(N2CCC3(CC2)[C@H](O)C[C@@H]3O)n1	-1.042	-3.114	-3.667	9.776
CN(C)c1cc(CNC(=O)c2ccc(Br)cc2F)ccn1	-29.1	-22.19	0.1298	-0.6818
CCCC(NC(=O)c1cc(C2CC2)[nH]n1)c1nnc2ccccn12 (centres undefined)	-6.902	-9.66	-4.941	0.2066
OCC1N(Cc2ccc(F)cc2)[C@H]2CC[C@]1(O)CC2 (some centres undefined)	-0.8223	-	-	3.632
CS(=O)(=O)N1CCC2(CCCN(Cc3ccccn3)C2)CC1.O=C(O)C(F)(F)F	-	-8.282	-	-
[H][C@@]12COC[C@]1(COc1cccnc1)CN(C(=O)Cc1ccsc1)C2	-	-51.33	-	-
Cc1cc(CN(C)C(=O)C2CCCN(C(=O)c3cccs3)C2)no1 (centres undefined)	-0.7743	8.088	-0.2486	-4.545
Cc1nc(C2CCCN(C(=O)CCCn3cccn3)C2)no1 (centres undefined)	21.57	0.3176	2.798	4.337
FC(F)Oc1ccc(CN2CCOC3(CCOCC3)C2)cc1Cl	-3.796	13.39	-0.8922	5.909
O=C(COCC1CC1)Nc1cc(-c2ccc(Br)s2)n[nH]1	0.3054	1.291	-2	-6.039
N#Cc1ccc(NC2CCN(c3ncccn3)CC2)cc1Cl	2.932	15.47	2.183	0.6479
Cn1cc(CN2CCO[C@@H]3CN(Cc4ccoc4)C[C@@H]3C2)cn1	6.473	-	-2.311	-1.474
CN(C)S(=O)(=O)c1ccc2c(c1)N(Cc1nccn1C)CC2	-4.805	-1.818	-1.33	3.502
CC(NC(=O)NCCCc1n[nH]c(N)c1C#N)c1ccc(F)c(F)c1 (centres undefined)	-7.136	-38.66	-4.011	3.412
CN(CCc1ccncc1)Cc1c(C2CCCC2)[nH]c2ncccc12	-9.479	4.131	3.59	-16.71
O=C(Cn1cccn1)N1CCC(Oc2ccc(C(F)(F)F)cn2)CC1	-8.51	-0.5078	2.545	-5.929
COCCN1CCn2c(CN(C)C(C)C)cnc2C1.O=C(O)C(F)(F)F.O=C(O)C(F)(F)F	-	2.07	-	-
Cc1cc(N2CCC(N(C)C(=O)Nc3ccccc3)CC2)nc(C)n1	-3.796	-2.956	0.2138	1.066
O=C(NCC1COCc2c(-c3cccnc3)nnn2C1)c1cccs1.O=C(O)C(F)(F)F (centres undefined)	-	-18.68	-	-
Cc1nc(C)c(CC(=O)N2CCC(c3ccn4nccc4n3)CC2)s1	-20.39	-5.094	-8.297	1.546 and 22.15
O=C(CSc1ccc2c(c1)OCCO2)NS(=O)(=O)c1cccs1	8.396	7.89	-2.308	-4.142
COc1cc(F)c(-n2cnc(CCNC(C)=O)c2)cc1F	-7.448	-	-2.768	-7.257
CNc1cc(-c2cccc(CN)c2)c2cc[nH]c2n1	-52.51	-14.29	5.438	6.456

Repeated from the top, 6 entries:

| Compound | ClpP1P2 | Toxoplasma | MtTrpRS | CoaBC |
|---|---|---|---|---|
| `Cc1cn2cc(C(=O)NC3CCCN(c4ncccn4)C3)ccc2n1` (centres undefined) | 1.187 | -12.26 | -1.72 | -3.121 |
| `CCC(=O)NC1CCN(c2cccc(OC(F)(F)F)c2)C1=O` (centres undefined) | 4.122 | 7.791 | 1.376 | 0.4132 |
| `N#Cc1ccnc(N2CCN(C(=O)c3ccc4c(c3)CCO4)CC2)c1` | -21.08 | -1.569 | -1.341 | 2.133 |
| `O=C(O)C(F)(F)F.c1csc(CN2CCn3c(Cn4cncn4)cnc3C2)c1` | - | -12.42 | - | - |
| `Cc1ccc(C(CNCc2ccncc2)N2CCOCC2)s1` (centres undefined) | -3.64 | -0.6331 | 6.191 | -3.52 |
| `Cc1ccc(N2CCN(C)c3ncccc3C2)nn1` | -3.78 | - | -0.5394 | - |